Values of other authors, collected in US20220119489A1, “COMPOSITIONS AND METHODS FOR TREATING MUSCULAR DYSTROPHY AND RELATED DISORDERS” (CHILDREN'S MEDICAL CENTER CORPORATION, priority 2019, published 2022).
At least one compound was matched to its structure with a doubt left.

Test system: CD82
Conditions: stated as previously shown, no test described

In the case of `C[C@@H]1C[C@H]2[C@@H]3CCC4=CC(=O)C=C[C@]4(C)[C@@]3(F)[C@@H](O)C[C@]2(C)[C@@]1(O)C(=O)CO` [dexamethasone], the “expression of CD82” value is listed as “increase expression of CD82”.
